Data source: PubChem BioAssay AID652243 (Drosophila RNAi Screening Center, 2013)
The screen tested about 24,000 reagents; this is a random part of those that have a named target and a result. Over the whole deposit, 246 (1%) were called active. 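Plates not normalised; calls are printed but the firefly/Renilla ratio behind them is not deposited; fold cut for lowering reported inconsistently.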 Raw values are not corrected between plates. Not stated in the record: the amount of reagent.

Aim: 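Fly genes required for human androgen receptor driven transcription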 (primary screen)
Cell system: Drosophila S2R+ cells
Reagent: long dsRNA against Drosophila genes
Duration: 72 h (48 h, then 24 h hormone)
Challenge: synthetic androgen R1881 at 10 nM for 24 h
Read-out: 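Per-well raw luminescence of the androgen-driven firefly reporter and of the Renilla control, two replicates each, without normalisation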
Direction: firefly reporter light: higher = more light from androgen-responsive reporter; Renilla control light: higher = more constitutive control signal (cell number, transfection)
Call rule: 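Hit when the log firefly-to-Renilla ratio dropped or increased by a fixed fold versus the mean of GFP or LacZ controls across duplicate plates; lowering cut given as 1.5 and as 3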
Calls: active = hit: reporter lowered or raised; inactive = no hit

KdelR (KDEL receptor) [DRSC03353] → firefly reporter light, replicate 1: 9.48e5; firefly reporter light, replicate 2: 1.13e6; Renilla control light, replicate 1: 9.43e5; Renilla control light, replicate 2: 1.24e6; outcome: inactive
Dnaaf4 (Dynein axonemal assembly factor 4) [DRSC02405] → firefly reporter light, replicate 1: 1.43e5; firefly reporter light, replicate 2: 2.42e5; Renilla control light, replicate 1: 1.56e6; Renilla control light, replicate 2: 2.08e6; outcome: inactive
RpS4 (Ribosomal protein S4) [DRSC11272] → firefly reporter light, replicate 1: 2.03e5; firefly reporter light, replicate 2: 2.08e5; Renilla control light, replicate 1: 1.97e6; Renilla control light, replicate 2: 1.80e6; outcome: inactive
mRpS22 (mitochondrial ribosomal protein S22) [DRSC14488] → firefly reporter light, replicate 1: 51805; firefly reporter light, replicate 2: 56406; Renilla control light, replicate 1: 5.98e5; Renilla control light, replicate 2: 6.55e5; outcome: inactive
mRpS22 (mitochondrial ribosomal protein S22) [DRSC28355] → firefly reporter light, replicate 1: 5.61e5; firefly reporter light, replicate 2: 9.40e5; Renilla control light, replicate 1: 1.28e6; Renilla control light, replicate 2: 1.23e6; outcome: inactive
CG13921 [DRSC08390] → firefly reporter light, replicate 1: 7.55e5; firefly reporter light, replicate 2: 7.88e5; Renilla control light, replicate 1: 1.70e6; Renilla control light, replicate 2: 1.82e6; outcome: inactive
CG13921 [DRSC25529] → firefly reporter light, replicate 1: 7.50e5; firefly reporter light, replicate 2: 9.18e5; Renilla control light, replicate 1: 6.87e5; Renilla control light, replicate 2: 7.21e5; outcome: inactive
CG13244 [DRSC21642] → firefly reporter light, replicate 1: 7.17e5; firefly reporter light, replicate 2: 6.06e5; Renilla control light, replicate 1: 2.59e6; Renilla control light, replicate 2: 2.04e6; outcome: inactive
CG6674 [DRSC10692] → firefly reporter light, replicate 1: 9.92e5; firefly reporter light, replicate 2: 8.34e5; Renilla control light, replicate 1: 8.24e5; Renilla control light, replicate 2: 8.61e5; outcome: inactive
CG13159 [DRSC06283] → firefly reporter light, replicate 1: 6.63e5; firefly reporter light, replicate 2: 7.07e5; Renilla control light, replicate 1: 1.64e6; Renilla control light, replicate 2: 2.01e6; outcome: inactive
CG13159 [DRSC28093] → firefly reporter light, replicate 1: 5.25e5; firefly reporter light, replicate 2: 4.83e5; Renilla control light, replicate 1: 2.06e6; Renilla control light, replicate 2: 1.92e6; outcome: inactive
bun (bunched) [DRSC01255] → firefly reporter light, replicate 1: 3.04e5; firefly reporter light, replicate 2: 3.58e5; Renilla control light, replicate 1: 5.70e5; Renilla control light, replicate 2: 5.33e5; outcome: inactive
bun (bunched) [DRSC23041] → firefly reporter light, replicate 1: 7.40e5; firefly reporter light, replicate 2: 7.22e5; Renilla control light, replicate 1: 1.60e6; Renilla control light, replicate 2: 1.59e6; outcome: inactive
bun (bunched) [DRSC25816] → firefly reporter light, replicate 1: 3.90e5; firefly reporter light, replicate 2: 4.73e5; Renilla control light, replicate 1: 6.74e5; Renilla control light, replicate 2: 6.48e5; outcome: inactive
AANATL7 (Arylalkylamine N-acetyltransferase-like 7) [DRSC18616] → firefly reporter light, replicate 1: 3.07e5; firefly reporter light, replicate 2: 2.64e5; Renilla control light, replicate 1: 2.47e6; Renilla control light, replicate 2: 2.11e6; outcome: inactive

In a second layout: entries from further up
Gene,DRSC id,"firefly reporter light, replicate 1","firefly reporter light, replicate 2","Renilla control light, replicate 1","Renilla control light, replicate 2",outcome
Dnaaf4 (Dynein axonemal assembly factor 4),DRSC02405,1.43e5,2.42e5,1.56e6,2.08e6,inactive
RpS4 (Ribosomal protein S4),DRSC11272,2.03e5,2.08e5,1.97e6,1.80e6,inactive
mRpS22 (mitochondrial ribosomal protein S22),DRSC14488,51805,56406,5.98e5,6.55e5,inactive
mRpS22 (mitochondrial ribosomal protein S22),DRSC28355,5.61e5,9.40e5,1.28e6,1.23e6,inactive
CG13921,DRSC08390,7.55e5,7.88e5,1.70e6,1.82e6,inactive

Next records:
CG8366 [DRSC07153] → firefly reporter light, replicate 1: 33395; firefly reporter light, replicate 2: 50162; Renilla control light, replicate 1: 9.31e5; Renilla control light, replicate 2: 9.31e5; outcome: inactive
dhd (deadhead) [DRSC18761] → firefly reporter light, replicate 1: 1.25e5; firefly reporter light, replicate 2: 1.22e5; Renilla control light, replicate 1: 8.81e5; Renilla control light, replicate 2: 7.89e5; outcome: inactive
dhd (deadhead) [DRSC29590] → firefly reporter light, replicate 1: 7.52e5; firefly reporter light, replicate 2: 7.53e5; Renilla control light, replicate 1: 1.07e6; Renilla control light, replicate 2: 1.07e6; outcome: inactive
shu (shutdown) [DRSC04484] → firefly reporter light, replicate 1: 7.59e5; firefly reporter light, replicate 2: 7.26e5; Renilla control light, replicate 1: 1.74e6; Renilla control light, replicate 2: 1.80e6; outcome: inactive
shu (shutdown) [DRSC27390] → firefly reporter light, replicate 1: 6.25e5; firefly reporter light, replicate 2: 6.92e5; Renilla control light, replicate 1: 7.99e5; Renilla control light, replicate 2: 8.76e5; outcome: inactive
Wee1 (Wee1 kinase) [DRSC03635] → firefly reporter light, replicate 1: 1.77e5; firefly reporter light, replicate 2: 2.39e5; Renilla control light, replicate 1: 1.75e6; Renilla control light, replicate 2: 2.02e6; outcome: inactive
Wee1 (Wee1 kinase) [DRSC23318] → firefly reporter light, replicate 1: 4.61e5; firefly reporter light, replicate 2: 5.25e5; Renilla control light, replicate 1: 1.67e6; Renilla control light, replicate 2: 1.92e6; outcome: inactive
Wee1 (Wee1 kinase) [DRSC36678] → outcome: inactive
CG5555 [DRSC15834] → firefly reporter light, replicate 1: 73272; firefly reporter light, replicate 2: 49257; Renilla control light, replicate 1: 6.29e5; Renilla control light, replicate 2: 6.12e5; outcome: inactive
CG8388 [DRSC07157] → firefly reporter light, replicate 1: 51911; firefly reporter light, replicate 2: 53451; Renilla control light, replicate 1: 9.51e5; Renilla control light, replicate 2: 9.51e5; outcome: inactive
Uba5 (Ubiquitin-like activating enzyme 5) [DRSC19775] → firefly reporter light, replicate 1: 5.40e5; firefly reporter light, replicate 2: 4.28e5; Renilla control light, replicate 1: 3.75e6; Renilla control light, replicate 2: 3.57e6; outcome: inactive
CG30096 [DRSC21744] → firefly reporter light, replicate 1: 4.56e5; firefly reporter light, replicate 2: 3.27e5; Renilla control light, replicate 1: 2.63e6; Renilla control light, replicate 2: 2.18e6; outcome: inactive
